Measured values published in PubChem BioAssay AID493014 (National Center for Advancing Translational Sciences (NCATS), 2011).
Some of the results follow. Shown are side measurements of this screen, not its main read-out; they come without a call. Compounds called inactive in the main read-out are mostly missing here. The note in brackets gives the kind of curve behind each potency; many fits are weak.

Assay: qHTS Assay to Find Inhibitors of Chronic Active B-Cell Receptor Signaling
Settings: ABC-DLBCL IkBa-CBG/CBR reporter, luminescence ratio (green luciferase fused to IkBa over red control in TMD8 lymphoma cells), 4 h; measured here: CBR red luminescence, cell number
Method in brief: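 TMD8 human ABC-DLBCL cells with doxycycline-inducible IκBα–green luciferase fusion and unfused red luciferase, in 0.5% FBS medium; compounds up to 46 uM, 4 h at 37C. Green/red luminescence ratio, filter-overlap corrected, fitted to concentration-response curves.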

| SMILES | AC50 |
| --- | --- |
| O=C1C(C=NCc2ccco2)=C(O)c2ccccc21 | 35.5 µM [falling, single point] |
| COc1ccc(-c2cc3nc(C)cc(NCCO)n3n2)cc1 | 35.5 µM [falling, single point] |
| O=C(CSc1nnnn1Cc1ccccc1)Nc1ccccc1 | 3.55 µM [rising, partial curve, poor fit] |
| O=C(O)C=C1CCN(c2ncc(C(F)(F)F)cc2Cl)CC1 | 12.6 µM [falling, partial curve] |
| COc1cc(C(c2c(C)[nH][nH]c2=O)c2c(C)[nH][nH]c2=O)cc(OC)c1OC | 35.5 µM [falling, single point] |
| O=c1[nH]n(-c2ccccn2)c(=O)c2ccccc12 | 11.2 µM [rising, partial curve] |
| O=C(c1sc2cc([N+](=O)[O-])ccc2c1Cl)N1CCCCC1 | 4.61 µM [falling, full curve, poor fit] |
| O=C(O)CC(SCC(=O)Nc1ccccc1)C(=O)O (configuration not stated) | 0.708 µM [rising, full curve, poor fit] |
| Cc1ccnc(NC(=O)c2ccc(S(=O)(=O)N3CCCCC3)cc2)c1 | 9.2 µM [falling, partial curve] |
| COc1cccc(C(=O)Nc2nc(-c3ccccc3)c(-c3ccccc3)o2)c1 | 1.84 µM [falling, full curve] |
| CCOC(=O)c1nnn(-c2nonc2N)c1-c1ccc(F)cc1 | 0.631 µM [rising, partial curve, poor fit] |
| COc1ccccc1NC(=O)CSc1nc(N)c(-c2ccccc2)c(=O)[nH]1 | 7.94 µM [falling, partial curve] |
| COc1cccc(C(=O)C(C#N)=C(SC)SC)c1 | 20 µM [falling, single point] |
| O=c1c2oc3ccccc3c2ncn1Cc1ccccc1F | 0.891 µM [falling, full curve, poor fit] |
| CC(=O)Nc1ccc(S(=O)(=O)N2CCC(c3nc4ccccc4[nH]3)CC2)cc1 | 14.6 µM [rising, single point] |
| c1ccc(-c2ccc(OCCCNC3CCCC3)cc2)cc1 | 22.4 µM [falling, single point] |
| O=C(c1cc(S(=O)(=O)N2CCOCC2)ccc1Cl)N1CCC(Cc2ccccc2)CC1 | 20.6 µM [falling, single point] |
| COc1ccc(OCC(=O)N/N=C(\C)c2ccc(-n3ccnc3)cc2)cc1 | 0.651 µM [rising, partial curve, poor fit] |
| CC(=O)Nc1cccc(C(=O)OCC(=O)Nc2nnc(-c3ccccc3)o2)c1 | 2.06 µM [rising, partial curve, poor fit] |
| O=C(O)CC(SCC(=O)Nc1ccc(Cl)c(S(=O)(=O)N2CCOCC2)c1)C(=O)O (configuration not stated) | 1.26 µM [falling, full curve, poor fit] |
| Cc1ccc(SCCC(=O)Nc2cccc(N(C)S(C)(=O)=O)c2)cc1 | 13 µM [rising, partial curve, poor fit] |

| SMILES | AC50 |
| --- | --- |
| COc1ccc(C)cc1S(=O)(=O)Nc1cccnc1 | 6.31 µM [falling, partial curve, poor fit] |
| COc1cc(/C=N/Nc2ccc(Cl)c(C(=O)O)c2)ccc1OC(=O)c1cccs1 | 7.94 µM [falling, partial curve] |
| Cc1oc2cc(O)ccc2c(=O)c1Oc1ccc2ccccc2c1 | 11.2 µM [falling, partial curve, poor fit] |
| O=C(NCc1ccccc1Cl)c1ccccc1Oc1ccccc1 | 3.66 µM [rising, full curve] |
| O=C(CCc1nc2ccccc2c(=O)[nH]1)Nc1ccc(F)c([N+](=O)[O-])c1 | 15.8 µM [falling, partial curve, poor fit] |
| O=S1(=O)CCC(=Nc2ccc(Cl)cc2)c2ccsc21 | 22.4 µM [rising, single point] |
| Cc1oc(-c2ccc(-c3ccccc3)cc2)nc1CN1CCN(CC(=O)N(C)C)CC1 | 2.82 µM [falling, full curve, poor fit] |
| CC(C)c1cc2cc3ccc(=O)oc3cc2o1 | 2.82 µM [rising, full curve] |
| COc1ccc2[nH]c3c(=O)n(/N=C/c4ccc(OC)c(CN5CCCC5)c4)c(C)nc3c2c1 | 1.78 µM [falling, partial curve, poor fit] |
| O=C(Nc1nnc(-c2ccccn2)o1)c1cccc(Br)c1 | 16.4 µM [falling, partial curve] |
| Nn1c(SCC(=O)Nc2ccc(N3CCOCC3)cc2)nnc1-c1cccc(F)c1 | 2.59 µM [rising, full curve] |
| COc1ccc(C(=O)NN/C(=N/S(=O)(=O)c2ccc(C)cc2)c2ccccc2)cc1 | 8.91 µM [falling, partial curve, poor fit] |
| COc1ccc(C(=O)NCC(=O)OCC(=O)Nc2ncc(Cl)cc2Cl)cc1[N+](=O)[O-] | 29.1 µM [rising, single point] |
| CCc1ccccc1NC(=O)C/C(C)=N/NC(=O)COc1ccccc1C | 35.5 µM [falling, partial curve, poor fit] |
| COc1ccc(Cl)cc1N(CC(=O)Nc1cccc(SC)c1)S(C)(=O)=O | 29.1 µM [falling, single point] |
| Cc1nc([N+](=O)[O-])c(Sc2nc3ccc([N+](=O)[O-])cc3[nH]2)n1Cc1ccccc1 | 9.2 µM [falling, partial curve] |
| O=C(Nc1ccccc1)c1cnc2ccccc2n1 | 13 µM [falling, single point] |
| CC(C)(CC(=O)O)Cc1nc(-c2ccc(Cl)cc2)no1 | 9.2 µM [falling, partial curve] |
| Cc1ccnc(NC(=O)c2ccccc2[N+](=O)[O-])c1 | 11.2 µM [falling, single point] |
| C[C@@H]1C(=O)N(c2ccccc2)[C@@H]1c1ccncc1 | 29.1 µM [rising, single point] |
| COc1cc(C(=O)NC(=S)Nc2ccccc2N2CCCC2)cc(OC)c1OC | 7.94 µM [falling, partial curve] |

Looked up one by one from the list above, three records:

| SMILES | AC50 |
| --- | --- |
| COc1cc(C(=O)NC(=S)Nc2ccccc2N2CCCC2)cc(OC)c1OC | 7.94 µM [falling, partial curve] |
| O=C(NCc1ccccc1Cl)c1ccccc1Oc1ccccc1 | 3.66 µM [rising, full curve] |
| COc1ccc(Cl)cc1N(CC(=O)Nc1cccc(SC)c1)S(C)(=O)=O | 29.1 µM [falling, single point] |
